Experimental data as given in patent US9517222B2, “Method for the treatment of senile dementia of the Alzheimer's type” (Phenomenome Discoveries Inc., priority 2007, dated 2016).
Some values come without a unit; they compare only within their column.

What was measured:
[1] = Serum ethanolamine phospholipid ratios to PtdEt 16:0/18:0 (M01) in human cohorts
[2] = Serum ethanolamine phospholipid levels in human cohorts (dementia severity, post-mortem pathology, age) by flow-injection MS/MS
[3] = serum, females, post mortem SDAT
[4] = serum, females, post mortem control

## CCCCCC=CCC=CCC=CCC=CCCCCCC(=O)OC(COC=CCCCCCCCCCCCCCC)COP(=O)(O)OCCN (centres unmarked) [Metabolite M18, Plasmenyl 16:0/22:4]
[1]; AD, All to CN, Male
  Ratio of ethanolamine phospholipid ratios to M01 between cohorts: 0.672
[1]; ADAS 5-19 to CN, Male
  Ratio of ethanolamine phospholipid ratios to M01 between cohorts: 0.714
[1]; ADAS 20-39 to CN, Male
  Ratio of ethanolamine phospholipid ratios to M01 between cohorts: 0.666
[1]; ADAS 40-70 to CN, Male
  Ratio of ethanolamine phospholipid ratios to M01 between cohorts: 0.603
[1]; Cognitive Normal, Male, serum
  Average serum ethanolamine phospholipid ratio to M01, Mean: 0.232
[1]; SDAT, ADAS 5-19, Male, serum
  Average serum ethanolamine phospholipid ratio to M01, Mean: 0.166
[1]; SDAT, ADAS 20-39, Male, serum
  Average serum ethanolamine phospholipid ratio to M01, Mean: 0.155
[1]; SDAT, ADAS 40-70, Male, serum
  Average serum ethanolamine phospholipid ratio to M01, Mean: 0.140
[1]; SDAT_all, Male, serum
  Average serum ethanolamine phospholipid ratio to M01, Mean: 0.156
[1]; human serum, females aged 30-39
  Ethanolamine Phospholipid Ratio to M01, Mean, Age Ctl, 30-39, Female: 0.282
[1]; human serum, females aged 40-49
  Ethanolamine Phospholipid Ratio to M01, Mean, Age Ctl, 40-49, Female: 0.289
[1]; human serum, females aged 50-59
  Ethanolamine Phospholipid Ratio to M01, Mean, Age Ctl, 50-59, Female: 0.245
[1]; human serum, females aged 50-59 vs. females aged 40-49
  Ratio of Ethanolamine Phospholipid Ratio to M01, 50-59 vs. 40-49, Female: 0.847
[1]; human serum, females aged 60-69
  Ethanolamine Phospholipid Ratio to M01, Mean, Age Ctl, 60-69, Female: 0.160
[1]; human serum, females aged 60-69 vs. females aged 40-49
  Ratio of Ethanolamine Phospholipid Ratio to M01, 60-69 vs. 40-49, Female: 0.552
[1]; human serum, females aged 70+
  Ethanolamine Phospholipid Ratio to M01, Mean, Age Ctl, 70+_Female: 0.191
[1]; human serum, females aged 70+ vs. females aged 40-49
  Ratio of Ethanolamine Phospholipid Ratio to M01, 70+ vs. 40-49, Female: 0.660
[1]; human serum, males aged 50-59 vs. males aged 40-49
  Ratio of Ethanolamine Phospholipid Ratio to M01, 50-59 vs. 40-49, Male: 1.067
[1]; human serum, males aged 60-69 vs. males aged 40-49
  Ratio of Ethanolamine Phospholipid Ratio to M01, 60-69 vs. 40-49, Male: 0.851
[1]; human serum, males aged 70+ vs. males aged 40-49
  Ratio of Ethanolamine Phospholipid Ratio to M01, 70+ vs. 40-49, Male: 0.761
[1]; serum, females, ADAS 5-19 vs cognitive normal
  Ratio of ethanolamine phospholipid ratio to M01, ADAS 5-19 to CN, Female: 0.879
[1]; serum, females, ADAS 20-39 vs ADAS 5-19
  Ratio of ethanolamine phospholipid ratio to M01, ADAS 20-39 to 5-19, Female: 0.960
[1]; serum, females, ADAS 20-39 vs cognitive normal
  Ratio of ethanolamine phospholipid ratio to M01, ADAS 20-39 to CN, Female: 0.844
[1]; serum, females, ADAS 40-70 vs ADAS 5-19
  Ratio of ethanolamine phospholipid ratio to M01, ADAS 40-70 to 5-19, Female: 0.777
[1]; serum, females, ADAS 40-70 vs ADAS 20-39
  Ratio of ethanolamine phospholipid ratio to M01, ADAS 40-70 to 20-39, Female: 0.809
[1]; serum, females, ADAS 40-70 vs cognitive normal
  Ratio of ethanolamine phospholipid ratio to M01, ADAS 40-70 to CN, Female: 0.683
[1]; serum, females, SDAT ADAS 5-19
  Ethanolamine phospholipid ratio to M01, Mean, SDAT, ADAS 5-19, Female: 0.178
[1]; serum, females, SDAT ADAS 20-39
  Ethanolamine phospholipid ratio to M01, Mean, SDAT, ADAS 20-39, Female: 0.170
[1]; serum, females, SDAT ADAS 40-70
  Ethanolamine phospholipid ratio to M01, Mean, SDAT, ADAS 40-70, Female: 0.138
[1]; serum, females, all AD vs cognitive normal
  Ratio of ethanolamine phospholipid ratio to M01, AD, All to CN, Female: 0.798
[1]; serum, females, all SDAT
  Ethanolamine phospholipid ratio to M01, Mean, SDAT_all Female: 0.161
[1]; serum, females, autopsy AD vs post mortem control
  Ratio of ethanolamine phospholipid ratio to M01, Autopsy AD vs. Control, Female: 0.854
[1]; serum, females, cognitive normal
  Ethanolamine phospholipid ratio to M01, Mean, Cognitive Normal, Female: 0.202
[1]; [3]
  Ethanolamine phospholipid ratio to M01, Mean, Post Mortem SDAT Female: 0.069
[1]; [4]
  Ethanolamine phospholipid ratio to M01, Mean, Post Mortem Ctl, Female: 0.081
[1]; serum, males, SDAT ADAS 20-39 vs ADAS 5-19
  Ratio of ethanolamine phospholipid ratio to M01, ADAS 20-39 to 5-19, Male: 0.932
[1]; serum, males, SDAT ADAS 40-70 vs ADAS 5-19
  Ratio of ethanolamine phospholipid ratio to M01, ADAS 40-70 to 5-19, Male: 0.844
[1]; serum, males, SDAT ADAS 40-70 vs ADAS 20-39
  Ratio of ethanolamine phospholipid ratio to M01, ADAS 40-70 to 20-39, Male: 0.905
[1]; serum, males, age control 30-39
  Ethanolamine phospholipid ratio to M01, Mean, Age Ctl, 30-39, Male: 0.258
[1]; serum, males, age control 40-49
  Ethanolamine phospholipid ratio to M01, Mean, Age Ctl, 40-49, Male: 0.229
[1]; serum, males, age control 50-59
  Ethanolamine phospholipid ratio to M01, Mean, Age Ctl, 50-59, Male: 0.244
[1]; serum, males, age control 60-69
  Ethanolamine phospholipid ratio to M01, Mean, Age Ctl, 60-69, Male: 0.195
[1]; serum, males, age control 70+
  Ethanolamine phospholipid ratio to M01, Mean, Age Ctl, 70+_Male: 0.174
[1]; serum, males, post mortem SDAT
  Ethanolamine phospholipid ratio to M01, Mean, Post Mortem SDAT Male: 0.056
[1]; serum, males, post mortem SDAT vs post mortem control
  Ratio of ethanolamine phospholipid ratio to M01, SDAT vs Control (post mortem, males): 0.656
[1]; serum, males, post mortem control
  Ethanolamine phospholipid ratio to M01, Mean, Post Mortem Ctl, Male: 0.085
[2]; AD, All to CN, Male
  Ratio of serum levels: 0.708
[2]; ADAS 5-19 to CN, Male
  Ratio of serum levels: 0.758
[2]; ADAS 20-39 to 5-19, Male
  Ratio of serum levels: 0.909
[2]; ADAS 20-39 to CN, Male
  Ratio of serum levels: 0.689
[2]; ADAS 40-70 to 5-19, Male
  Ratio of serum levels: 0.809
[2]; ADAS 40-70 to 20-39, Male
  Ratio of serum levels: 0.890
[2]; ADAS 40-70 to CN, Male
  Ratio of serum levels: 0.613
[2]; Cognitive Normal, Female
  Serum level, Mean: 0.024
[2]; Cognitive Normal, Male
  Average serum level, Mean: 0.026
[2]; Post Mortem Ctl, Male
  Serum level, Mean: 0.010
[2]; Post Mortem SDAT Male
  Serum level, Mean: 0.005
[2]; Post mortem SDAT vs Control, Male
  Ratio of serum levels: 0.521
[2]; SDAT, ADAS 5-19, Female
  Serum level, Mean: 0.019
[2]; SDAT, ADAS 5-19, Male
  Average serum level, Mean: 0.020
[2]; SDAT, ADAS 20-39, Female
  Serum level, Mean: 0.019
[2]; SDAT, ADAS 20-39, Male
  Average serum level, Mean: 0.018
[2]; SDAT, ADAS 40-70, Female
  Serum level, Mean: 0.016
[2]; SDAT, ADAS 40-70, Male
  Average serum level, Mean: 0.016
[2]; SDAT_all, Female
  Serum level, Mean: 0.018
[2]; SDAT_all, Male
  Average serum level, Mean: 0.019
[2]; serum level ratio, females, ADAS 5-19 vs CN
  Ratio, ADAS 5-19 to CN, Female: 0.804
[2]; serum level ratio, females, ADAS 20-39 vs ADAS 5-19
  Ratio, ADAS 20-39 to 5-19, Female: 0.985
[2]; serum level ratio, females, ADAS 20-39 vs CN
  Ratio, ADAS 20-39 to CN, Female: 0.792
[2]; serum level ratio, females, ADAS 40-70 vs ADAS 5-19
  Ratio, ADAS 40-70 to 5-19, Female: 0.837
[2]; serum level ratio, females, ADAS 40-70 vs ADAS 20-39
  Ratio, ADAS 40-70 to 20-39, Female: 0.850
[2]; serum level ratio, females, ADAS 40-70 vs CN
  Ratio, ADAS 40-70 to CN, Female: 0.673
[2]; serum level ratio, females, age 50-59 vs 40-49
  Ratio, 50-59 vs. 40-49, Female: 0.778
[2]; serum level ratio, females, age 60-69 vs 40-49
  Ratio, 60-69 vs. 40-49, Female: 0.594
[2]; serum level ratio, females, age 70+ vs 40-49
  Ratio, 70+ vs. 40-49, Female: 0.733
[2]; serum level ratio, females, all AD vs cognitively normal
  Ratio, AD, All to CN, Female: 0.754
[2]; serum level ratio, females, autopsy AD vs control
  Ratio, Autopsy AD vs. Control, Female: 0.579
[2]; serum level ratio, males, age 50-59 vs 40-49
  Ratio, 50-59 vs. 40-49, Male: 1.055
[2]; serum level ratio, males, age 60-69 vs 40-49
  Ratio, 60-69 vs. 40-49, Male: 1.032
[2]; serum level ratio, males, age 70+ vs 40-49
  Ratio, 70+ vs. 40-49, Male: 0.904
[2]; serum, females, age 30-39
  Mean serum level, Age Ctl, 30-39, Female: 0.028
[2]; serum, females, age 40-49
  Mean serum level, Age Ctl, 40-49, Female: 0.032
[2]; serum, females, age 50-59
  Mean serum level, Age Ctl, 50-59, Female: 0.025
[2]; serum, females, age 60-69
  Mean serum level, Age Ctl, 60-69, Female: 0.019
[2]; serum, females, age 70+
  Mean serum level, Age Ctl, 70+, Female: 0.023
[2]; [3]
  Mean serum level, Post Mortem SDAT, Female: 0.008
[2]; [4]
  Mean serum level, Post Mortem Ctl, Female: 0.014
[2]; serum, males, age 30-39
  Mean serum level, Age Ctl, 30-39, Male: 0.032
[2]; serum, males, age 40-49
  Mean serum level, Age Ctl, 40-49, Male: 0.025
[2]; serum, males, age 50-59
  Mean serum level, Age Ctl, 50-59, Male: 0.027
[2]; serum, males, age 60-69
  Mean serum level, Age Ctl, 60-69, Male: 0.026
[2]; serum, males, age 70+
  Mean serum level, Age Ctl, 70+, Male: 0.023
